PubChem BioAssay AID652243, Drosophila RNAi Screening Center | 2013
In all, the deposit lists about 24,000 reagents; this is an unselected part of those with a known target gene and a result. In the full data, 246 (1%) are marked active. 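Plates not normalised; calls are printed but the firefly/Renilla ratio behind them is not deposited; fold cut for lowering reported inconsistently.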 The raw values are shown without normalisation. Names joined by + are all predicted targets of the reagent. Not given: the amount of reagent.

Purpose: 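Knock-downs that decrease or increase androgen receptor reporter signal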 (primary screen)
Cell system: Drosophila S2R+ cells
Reagents: long dsRNA against Drosophila genes
Timing: 72 h (48 h, then 24 h hormone)
Challenge: synthetic androgen R1881 at 10 nM for 24 h
Measurement: 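Firefly light from an androgen-responsive reporter and Renilla control light per well, raw and unnormalised, for each of two replicates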
Direction: firefly reporter light: higher = more light from androgen-responsive reporter; Renilla control light: higher = more constitutive control signal (cell number, transfection)
Hit rule: 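Across duplicate plates, a knock-down whose log firefly/Renilla ratio shifted a set fold down or up from the GFP/LacZ control mean was a hit; the downward cut appears as both 1.5 and 3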
Calls: active = hit: reporter lowered or raised; inactive = no hit

With Tmem63 (GeneID 35779) [DRSC06063], what was measured?
firefly reporter light, replicate 1: 2.79e5; firefly reporter light, replicate 2: 2.26e5; Renilla control light, replicate 1: 1.32e6; Renilla control light, replicate 2: 9.46e5; outcome: inactive

For Tmem63 (GeneID 35779) [DRSC27402], how do the results read?
firefly reporter light, replicate 1: 1.98e5; firefly reporter light, replicate 2: 1.89e5; Renilla control light, replicate 1: 6.28e5; Renilla control light, replicate 2: 4.65e5; outcome: inactive

What did the screen give for Obp19a (GeneID 33037) [DRSC20487]?
firefly reporter light, replicate 1: 1.83e5; firefly reporter light, replicate 2: 1.35e5; Renilla control light, replicate 1: 6.77e5; Renilla control light, replicate 2: 2.88e5; outcome: inactive

What is on record for CG9270 (GeneID 35366) [DRSC03182]?
firefly reporter light, replicate 1: 1.12e6; firefly reporter light, replicate 2: 9.88e5; Renilla control light, replicate 1: 3.35e6; Renilla control light, replicate 2: 3.08e6; outcome: inactive

Which result is listed for I-2 (GeneID 39156) [DRSC11194]?
firefly reporter light, replicate 1: 2.09e5; firefly reporter light, replicate 2: 1.75e5; Renilla control light, replicate 1: 1.61e6; Renilla control light, replicate 2: 1.51e6; outcome: inactive

Which result is listed for I-2 (GeneID 39156) [DRSC23300]?
firefly reporter light, replicate 1: 7.84e5; firefly reporter light, replicate 2: 7.63e5; Renilla control light, replicate 1: 2.31e6; Renilla control light, replicate 2: 1.76e6; outcome: inactive

Which result is listed for CG4218 (GeneID 34848) [DRSC01939]?
firefly reporter light, replicate 1: 1.61e5; firefly reporter light, replicate 2: 1.48e5; Renilla control light, replicate 1: 1.79e6; Renilla control light, replicate 2: 1.64e6; outcome: inactive

What did the screen give for CG4218 (GeneID 34848) [DRSC27814]?
firefly reporter light, replicate 1: 1.57e5; firefly reporter light, replicate 2: 2.56e5; Renilla control light, replicate 1: 4.30e5; Renilla control light, replicate 2: 7.45e5; outcome: inactive

With Rif1 (GeneID 246445) [DRSC05593], how do the results read?
firefly reporter light, replicate 1: 2.34e5; firefly reporter light, replicate 2: 2.62e5; Renilla control light, replicate 1: 4.42e5; Renilla control light, replicate 2: 4.66e5; outcome: inactive

For BaraA1 + BaraA2 [DRSC05417], what does the deposit list?
firefly reporter light, replicate 1: 77565; firefly reporter light, replicate 2: 48787; Renilla control light, replicate 1: 2.49e5; Renilla control light, replicate 2: 1.95e5; outcome: inactive

With CG32945 (GeneID 318261) [DRSC12014], what does the deposit list?
firefly reporter light, replicate 1: 1.67e5; firefly reporter light, replicate 2: 1.58e5; Renilla control light, replicate 1: 3.67e5; Renilla control light, replicate 2: 2.32e5; outcome: inactive

For eco (GeneID 38812) [DRSC11006], what was measured?
firefly reporter light, replicate 1: 1.12e6; firefly reporter light, replicate 2: 9.94e5; Renilla control light, replicate 1: 1.42e6; Renilla control light, replicate 2: 1.70e6; outcome: inactive

Reformatted: results already given
{"Target gene":"Tmem63 (GeneID 35779)","dsRNA":"DRSC06063","firefly reporter light, replicate 1":2.79e5,"firefly reporter light, replicate 2":2.26e5,"Renilla control light, replicate 1":1.32e6,"Renilla control light, replicate 2":9.46e5,"outcome":"inactive"}
{"Target gene":"Tmem63 (GeneID 35779)","dsRNA":"DRSC27402","firefly reporter light, replicate 1":1.98e5,"firefly reporter light, replicate 2":1.89e5,"Renilla control light, replicate 1":6.28e5,"Renilla control light, replicate 2":4.65e5,"outcome":"inactive"}
{"Target gene":"Obp19a (GeneID 33037)","dsRNA":"DRSC20487","firefly reporter light, replicate 1":1.83e5,"firefly reporter light, replicate 2":1.35e5,"Renilla control light, replicate 1":6.77e5,"Renilla control light, replicate 2":2.88e5,"outcome":"inactive"}

Continued:
How did the screen score muskelin (GeneID 36386) [DRSC07273]?
firefly reporter light, replicate 1: 2.11e5; firefly reporter light, replicate 2: 1.07e5; Renilla control light, replicate 1: 1.81e6; Renilla control light, replicate 2: 1.64e6; outcome: active

With Spn28B (GeneID 34035) [DRSC02982], what does the deposit list?
firefly reporter light, replicate 1: 4.00e5; firefly reporter light, replicate 2: 5.29e5; Renilla control light, replicate 1: 2.50e6; Renilla control light, replicate 2: 2.11e6; outcome: inactive

For GstD8 (GeneID 48341) [DRSC16689], how do the results read?
firefly reporter light, replicate 1: 1.84e5; firefly reporter light, replicate 2: 2.09e5; Renilla control light, replicate 1: 2.85e6; Renilla control light, replicate 2: 2.83e6; outcome: inactive

What did the screen give for GstD8 (GeneID 48341) [DRSC24666]?
firefly reporter light, replicate 1: 6.05e5; firefly reporter light, replicate 2: 3.04e5; Renilla control light, replicate 1: 4.66e5; Renilla control light, replicate 2: 4.58e5; outcome: inactive

How did the screen score CG33269 (GeneID 2768983) [DRSC10585]?
firefly reporter light, replicate 1: 6.94e5; firefly reporter light, replicate 2: 6.33e5; Renilla control light, replicate 1: 2.51e6; Renilla control light, replicate 2: 1.42e6; outcome: inactive

For mod(mdg4) + pre-mod(mdg4)-U [DRSC13476], what was measured?
firefly reporter light, replicate 1: 2.48e5; firefly reporter light, replicate 2: 2.24e5; Renilla control light, replicate 1: 4.73e5; Renilla control light, replicate 2: 5.99e5; outcome: inactive

Which result is listed for CASK (GeneID 42567) [DRSC14588]?
firefly reporter light, replicate 1: 3.00e5; firefly reporter light, replicate 2: 2.44e5; Renilla control light, replicate 1: 1.74e6; Renilla control light, replicate 2: 1.97e6; outcome: inactive

For CASK (GeneID 42567) [DRSC16597], how do the results read?
firefly reporter light, replicate 1: 2.11e5; firefly reporter light, replicate 2: 3.61e5; Renilla control light, replicate 1: 3.36e6; Renilla control light, replicate 2: 3.77e6; outcome: inactive

For CASK (GeneID 42567) [DRSC16598], how do the results read?
firefly reporter light, replicate 1: 2.19e5; firefly reporter light, replicate 2: 2.62e5; Renilla control light, replicate 1: 2.94e6; Renilla control light, replicate 2: 3.06e6; outcome: inactive

For CASK (GeneID 42567) [DRSC21917], what does the deposit list?
firefly reporter light, replicate 1: 8.58e5; firefly reporter light, replicate 2: 5.47e5; Renilla control light, replicate 1: 1.72e6; Renilla control light, replicate 2: 2.49e6; outcome: inactive

With CASK (GeneID 42567) [DRSC29057], what was measured?
firefly reporter light, replicate 1: 5.75e5; firefly reporter light, replicate 2: 3.88e5; Renilla control light, replicate 1: 1.12e6; Renilla control light, replicate 2: 6.24e5; outcome: inactive

What did the screen give for CASK (GeneID 42567) [DRSC37022]?
outcome: inactive
